Results are given in words; binding and its absence hold for the method and conditions named. Some entries that bind do so weakly or less than the wild type.

This note sets out measurements from patent US20070031415A1, “Regulation of interaction between rapl and rap1” (priority 2002, published 2007).

The target of this experiment is GTP-Rap1 (human). The experiment can be described thus: binding to GTP-Rap1, assay not detailed.

B1: human p30 (RAPL), wild type (protein)
chain: MTVDSSMSSGYCSLDEELEDCFFTAKTTFFRNAQSKHLSKNVCKPVEETQRPPTLQEIKQKIDSYNTREKNCLGMKLSEDGTYTGFIKVHLKLRRPVTVPAGIRPQSIYDAIKEVNLAATTDKRTSFYLPLDAIKQLHISSTTTVSEVIQGLLKKFMVVDNPQKFALFKRIHKDGQVLFQKLSIADRPLYLRLLAGPDTEVLSFVLKENETGEVEWDAFSIPELQNFLTILEKEEQDKIQQVQKKYDKFRQKLEEALRESQGKPG
As to B1, the binding entry is given as “binds”.
